For 3 molecules, binding results are on record in PMC6336817.

The chains behind the UniProt entries cited, without tags or fusion partners.
UniProt P84022: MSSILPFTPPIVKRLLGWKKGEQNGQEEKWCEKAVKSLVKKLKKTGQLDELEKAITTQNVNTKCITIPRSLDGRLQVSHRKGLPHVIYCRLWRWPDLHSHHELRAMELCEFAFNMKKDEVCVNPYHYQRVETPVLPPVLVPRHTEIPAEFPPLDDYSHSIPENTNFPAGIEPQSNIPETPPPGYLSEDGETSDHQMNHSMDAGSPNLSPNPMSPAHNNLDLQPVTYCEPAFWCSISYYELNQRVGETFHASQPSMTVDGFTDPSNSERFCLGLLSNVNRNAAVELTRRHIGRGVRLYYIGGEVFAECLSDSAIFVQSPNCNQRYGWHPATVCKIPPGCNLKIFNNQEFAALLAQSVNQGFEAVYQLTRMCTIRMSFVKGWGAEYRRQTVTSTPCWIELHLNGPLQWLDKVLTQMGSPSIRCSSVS
UniProt Q16665: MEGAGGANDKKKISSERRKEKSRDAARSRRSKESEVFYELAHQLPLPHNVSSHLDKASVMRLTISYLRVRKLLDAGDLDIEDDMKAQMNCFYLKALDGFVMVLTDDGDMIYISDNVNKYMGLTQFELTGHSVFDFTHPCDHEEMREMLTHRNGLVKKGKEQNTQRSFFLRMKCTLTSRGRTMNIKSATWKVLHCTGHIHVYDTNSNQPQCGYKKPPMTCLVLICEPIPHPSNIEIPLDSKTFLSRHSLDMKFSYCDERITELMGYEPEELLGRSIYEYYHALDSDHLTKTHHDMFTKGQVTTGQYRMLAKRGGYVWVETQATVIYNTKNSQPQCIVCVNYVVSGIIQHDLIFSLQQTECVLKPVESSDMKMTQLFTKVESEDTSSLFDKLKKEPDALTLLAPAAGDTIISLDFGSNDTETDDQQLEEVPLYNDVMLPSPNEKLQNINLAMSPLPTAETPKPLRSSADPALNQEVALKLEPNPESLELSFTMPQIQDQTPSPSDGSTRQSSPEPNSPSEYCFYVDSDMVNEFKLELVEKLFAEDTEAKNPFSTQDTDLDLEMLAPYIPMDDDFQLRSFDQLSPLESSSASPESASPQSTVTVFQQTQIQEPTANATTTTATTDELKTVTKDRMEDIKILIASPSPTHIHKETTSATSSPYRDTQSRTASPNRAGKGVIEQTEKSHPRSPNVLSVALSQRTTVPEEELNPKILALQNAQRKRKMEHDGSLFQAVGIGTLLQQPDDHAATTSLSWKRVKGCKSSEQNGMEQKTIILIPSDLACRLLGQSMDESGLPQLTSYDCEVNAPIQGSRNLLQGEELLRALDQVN
UniProt Q99814: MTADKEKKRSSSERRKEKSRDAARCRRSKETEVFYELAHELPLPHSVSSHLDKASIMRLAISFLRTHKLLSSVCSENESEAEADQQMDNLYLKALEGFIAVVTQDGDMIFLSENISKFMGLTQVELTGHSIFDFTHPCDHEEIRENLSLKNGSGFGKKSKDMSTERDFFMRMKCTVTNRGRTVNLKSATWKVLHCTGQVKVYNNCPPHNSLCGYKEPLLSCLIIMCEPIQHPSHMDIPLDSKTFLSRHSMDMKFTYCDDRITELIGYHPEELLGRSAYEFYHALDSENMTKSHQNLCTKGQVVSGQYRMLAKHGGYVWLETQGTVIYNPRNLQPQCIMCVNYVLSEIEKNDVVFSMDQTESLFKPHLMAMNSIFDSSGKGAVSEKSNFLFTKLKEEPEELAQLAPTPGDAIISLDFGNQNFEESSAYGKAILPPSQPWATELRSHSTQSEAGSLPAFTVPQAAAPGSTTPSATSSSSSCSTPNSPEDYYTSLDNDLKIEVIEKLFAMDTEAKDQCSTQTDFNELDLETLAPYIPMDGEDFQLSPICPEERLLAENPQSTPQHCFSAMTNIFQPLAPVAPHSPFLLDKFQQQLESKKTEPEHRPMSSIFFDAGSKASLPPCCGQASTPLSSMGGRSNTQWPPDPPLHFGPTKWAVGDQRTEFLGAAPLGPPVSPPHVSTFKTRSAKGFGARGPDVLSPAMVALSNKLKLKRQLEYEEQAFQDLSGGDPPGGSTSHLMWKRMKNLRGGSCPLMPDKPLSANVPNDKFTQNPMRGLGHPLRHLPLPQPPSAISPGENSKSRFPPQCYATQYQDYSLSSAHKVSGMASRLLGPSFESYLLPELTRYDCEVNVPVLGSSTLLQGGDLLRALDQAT

Results are given in words; binding and its absence hold for the method and conditions named. For some of these results: Binding seen in cells or lysates may run through a third protein. Some results given as binding are weak or reduced against the parent protein; the word gives no strength.

Experiment [1] deals with T1, ONECUT2 (human) (UniProt O95948).
T1 sequence: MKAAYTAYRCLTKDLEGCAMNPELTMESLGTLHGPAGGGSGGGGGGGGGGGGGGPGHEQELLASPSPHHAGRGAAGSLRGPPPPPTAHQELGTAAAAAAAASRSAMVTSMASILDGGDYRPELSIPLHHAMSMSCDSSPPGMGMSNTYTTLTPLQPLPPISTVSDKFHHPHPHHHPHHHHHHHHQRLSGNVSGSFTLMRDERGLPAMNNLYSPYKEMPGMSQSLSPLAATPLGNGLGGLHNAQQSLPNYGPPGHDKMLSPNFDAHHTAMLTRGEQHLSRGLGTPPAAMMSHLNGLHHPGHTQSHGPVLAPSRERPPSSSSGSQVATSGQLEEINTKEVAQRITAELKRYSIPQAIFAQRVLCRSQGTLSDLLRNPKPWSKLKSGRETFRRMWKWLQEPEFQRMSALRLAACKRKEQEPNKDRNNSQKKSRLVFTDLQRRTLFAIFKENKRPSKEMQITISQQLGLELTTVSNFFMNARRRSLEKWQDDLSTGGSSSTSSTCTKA
The experiment can be described thus: co-IP; ONECUT2 or HIF1α immunoprecipitated, western blot for the other protein; cells, buffers and conditions not told; no figure is cited. On the technique in general: In western blotting, separated proteins are transferred to a membrane and probed.

Experiment [2] concerns the target SMAD3 (human (endogenous in PC3)) (UniProt P84022). As to the kind of experiment: ChIP-re-ChIP-Seq; formaldehyde cross-linked chromatin of PC3 cells under hypoxic conditions; complexes of the first immunoprecipitation eluted with 20 mM dithiothreitol at 37 °C, diluted 30~50 fold, second immunoprecipitation, sequencing; read out as peaks that overlap both single ChIP-Seq sets.

Experiment [3] deals with HIF1α (human (endogenous in PC3)) (UniProt Q16665). The experiment can be described thus: co-IP; ONECUT2 or HIF1α immunoprecipitated, western blot for the other protein; cells, buffers and conditions not told; no figure is cited.

As for HIF1α (from UniProt Q16665 1-826), the binding result is given as “no binding” in experiment [1] and “binds” in experiment [2].

As for HIF2α (from UniProt Q99814 1-870), in experiment [2], the binding entry is listed as “no binding”.

B1: ONECUT2 (protein, UniProt O95948 1-504)
chain: T1 sequence
For the molecule B1, the binding result in experiment [3] is given as “no binding”.
